Source: patent US20080318931A1, “Treatment of Disorders and Diseases of the Colon” (priority 2004, published 2008)
At least one compound was matched to its structure with a doubt left.

Test system: Con-A activated splenocytes
Conditions: 5 μM, LPS-treated mice

## C[C@@H]1C[C@H]2[C@@H]3CCC4=CC(=O)C=C[C@]4(C)[C@@]3(F)[C@@H](O)C[C@]2(C)[C@@]1(O)C(=O)CO [dexamethasone]
  response of splenocytes from LPS mice: resistance
